These are yes or no findings as the source states them, for the method shown. Some binding calls cover weakened binding; strength is not graded here.
Assays:
[1] = molecular target: Human CD7 protein (soluble) (human) (UniProt P09564); experiment: SPR, soluble CD7
[2] = molecular target: Human CD7 protein (soluble) (human) (UniProt P09564); experiment: SPR
[3] = molecular target: Human CD7 protein (soluble) (human) (UniProt P09564); experiment: SPR, mAb captured, single concentration of human CD7 protein as analyte (concentration not given)

Protein sequences, listed by entry. Tags and fused reporters are not part of them. Lines headed by an entry give the natural chain unless they say otherwise; changes in a name come on top.
UniProt P09564: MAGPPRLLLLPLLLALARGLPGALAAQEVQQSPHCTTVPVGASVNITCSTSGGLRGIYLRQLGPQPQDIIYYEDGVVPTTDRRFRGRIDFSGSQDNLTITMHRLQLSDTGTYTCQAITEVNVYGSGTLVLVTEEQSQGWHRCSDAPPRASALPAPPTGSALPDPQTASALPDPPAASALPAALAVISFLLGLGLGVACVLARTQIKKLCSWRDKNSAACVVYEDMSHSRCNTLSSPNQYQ

Measured: binding

B1: 1741G09 (antibody, V domains shown)
VH: EVQLVESGGGLVKPGGSLRLSCAASGFSFSVAWMSWVRQAPGKGLEWVGRIKRKTDGGTTDYAAPVKGRFIISRDDSIKALYLQMNSLKTEDTAVYYCTTDPLLRYSDWLSHSLMGDVWGQGTTVTVSS
VL: DIQMTQSPSSLSASVGDRVAITCRTSQNINNYLNWYQQKPGKAPKPLIYAASSLQSGVPSRFSGSGSGTDFTLTISTLHPEDFATYYCQQTYSIPLTFGGGTKVEIK
binds: all assays above
